The record followed here is publication PMC9381590.

Sequences of proteins named here, by UniProt entry; tags and fusion partners are left off. A change or cut given only in a name is not applied to a line headed by its entry.
UniProt Q13838: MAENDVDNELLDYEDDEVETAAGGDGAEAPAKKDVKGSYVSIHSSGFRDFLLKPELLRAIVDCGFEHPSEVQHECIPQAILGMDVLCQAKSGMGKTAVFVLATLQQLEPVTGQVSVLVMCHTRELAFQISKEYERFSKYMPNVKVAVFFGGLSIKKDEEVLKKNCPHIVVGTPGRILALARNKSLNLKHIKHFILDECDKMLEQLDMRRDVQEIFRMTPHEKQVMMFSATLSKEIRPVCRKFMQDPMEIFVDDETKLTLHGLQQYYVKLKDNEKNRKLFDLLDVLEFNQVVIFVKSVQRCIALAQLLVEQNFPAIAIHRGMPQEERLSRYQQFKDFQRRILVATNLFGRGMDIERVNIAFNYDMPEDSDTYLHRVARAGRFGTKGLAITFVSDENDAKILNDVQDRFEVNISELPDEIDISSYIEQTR

Results are given in words; binding and its absence hold for the method and conditions named. In cells and extracts the contact can be indirect. These calls come from enrichment with a bait or labelling near it, and not all partners need be listed.

This assay addresses FLAG-DDX39B (human) (UniProt Q13838). In words: affinity purification with mass spectrometry; lysates of CRC cells stably expressing FLAG-vector or FLAG-DDX39B, anti-FLAG M2 magnetic beads, SDS-PAGE bands, LC-MS/MS.

B1: PFKP (protein, UniProt Q01813 1-784)
chain: MDADDSRAPKGSLRKFLEHLSGAGKAIGVLTSGGDAQGMNAAVRAVVRMGIYVGAKVYFIYEGYQGMVDGGSNIAEADWESVSSILQVGGTIIGSARCQAFRTREGRLKAACNLLQRGITNLCVIGGDGSLTGANLFRKEWSGLLEELARNGQIDKEAVQKYAYLNVVGMVGSIDNDFCGTDMTIGTDSALHRIIEVVDAIMTTAQSHQRTFVLEVMGRHCGYLALVSALACGADWVFLPESPPEEGWEEQMCVKLSENRARKKRLNIIIVAEGAIDTQNKPITSEKIKELVVTQLGYDTRVTILGHVQRGGTPSAFDRILASRMGVEAVIALLEATPDTPACVVSLNGNHAVRLPLMECVQMTQDVQKAMDERRFQDAVRLRGRSFAGNLNTYKRLAIKLPDDQIPKTNCNVAVINVGAPAAGMNAAVRSAVRVGIADGHRMLAIYDGFDGFAKGQIKEIGWTDVGGWTGQGGSILGTKRVLPGKYLEEIATQMRTHSINALLIIGGFEAYLGLLELSAAREKHEEFCVPMVMVPATVSNNVPGSDFSIGADTALNTITDTCDRIKQSASGTKRRVFIIETMGGYCGYLANMGGLAAGADAAYIFEEPFDIRDLQSNVEHLTEKMKTTIQRGLVLRNESCSENYTTDFIYQLYSEEGKGVFDCRKNVLGHMQQGGAPSPFDRNFGTKISARAMEWITAKLKEARGRGKKFTTDDSICVLGISKRNVIFQPVAELKKQTDFEHRIPKEQWWLKLRPLMKILAKYKASYDVSDSGQLEHVQPWSV
For the molecule B1, the binding entry is recorded as “binds”.

B2: SARNP (protein, UniProt P82979 1-210)
chain: MATETVELHKLKLAELKQECLARGLETKGIKQDLIHRLQAYLEEHAEEEANEEDVLGDETEEEETKPIELPVKEEEPPEKTVDVAAEKKVVKITSEIPQTERMQKRAERFNVPVSLESKKAARAARFGISSVPTKGLSSDNKPMVNLDKLKERAQRFGLNVSSISRKSEDDEKLKKRKERFGIVTSSAGTGTTEDTEAKKRKRAERFGIA
Consider B2, for which the binding entry is listed as “binds”.
